According to publication PMC7819943, “Rice protein-binding microarrays: a tool to detect cis-acting elements near promoter regions in rice”:
This is one part of the list.

Target: T1, OsSMF1 (Oryza sativa, UniProt Q6ZLB0 1-436)
T1 sequence: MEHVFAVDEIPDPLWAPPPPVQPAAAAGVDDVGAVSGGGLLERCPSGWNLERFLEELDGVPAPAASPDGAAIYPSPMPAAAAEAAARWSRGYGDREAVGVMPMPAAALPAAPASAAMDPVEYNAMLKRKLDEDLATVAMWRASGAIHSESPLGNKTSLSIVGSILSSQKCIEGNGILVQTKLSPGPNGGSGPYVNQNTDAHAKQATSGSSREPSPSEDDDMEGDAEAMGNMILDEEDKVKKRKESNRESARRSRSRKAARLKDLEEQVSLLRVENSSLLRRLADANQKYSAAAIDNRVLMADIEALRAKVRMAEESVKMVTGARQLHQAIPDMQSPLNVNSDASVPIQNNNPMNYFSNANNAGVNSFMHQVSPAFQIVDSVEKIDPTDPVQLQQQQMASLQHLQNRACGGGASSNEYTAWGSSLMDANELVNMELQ
Test: protein-binding microarray (RPBM); PBS, 2% BSA, 51.3 ng/ul salmon testes DNA, 50 uM zinc acetate, 200 nM TF, 25 C, 1 h; high values mean tight binding
Conditions: protein: recombinant; tags: N-terminal polyhistidine and DsRed monomer fusion (pET32a); chain copies: 2; label: CyDye5-dUTP incorporated in the synthesized complementary strand; 3' TTTTT single-stranded linker to array surface; dsDNA, one strand shown
Outline: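 In PBS with 2% BSA, salmon testes DNA and 50 µM zinc acetate, 200 nM protein was incubated on a custom Agilent array at 25 °C for 1 h and then washed off. The array had been made double-stranded by primer extension with Cy5-dUTP and blocked with 2% BSA. The proteins were transcription factors fused N-terminally to polyhistidine and DsRed, expressed in E. coli BL21-CodonPlus and purified on Ni–NTA. The binding signal is per-feature fluorescence intensity (arbitrary units) from an Axon 4000B scanner.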

Sequence | binding signal
TACACTTTATCCAAATTCGTAGTTTTAGGATGAGTCAGGTCGGAGTCACCTAGTGCAG | 9060 fluorescence intensity (a.u.)
GCGTGCATATTTTGAGATGTGCTACTCTACTGCGTCAGCACGGAGTCACCTAGTGCAG | 6620 fluorescence intensity (a.u.)
CGATGTATATATGTCAGAATCAGATGAGTTGTACAGTGAACGGAGTCACCTAGTGCAG | 3510 fluorescence intensity (a.u.)
AATCCTCCATGACTCGAGTCTCTCCTCGGATTAGGATCTACGGAGTCACCTAGTGCAG | 4740 fluorescence intensity (a.u.)
TAATGAACAAAGTCAGCTTCCTGTTCTGGACGACACTGTTCGGAGTCACCTAGTGCAG | 7970 fluorescence intensity (a.u.)
GAGCACAATAGACAACACACCATCACTTACGCAGTTACACCGGAGTCACCTAGTGCAG | 3470 fluorescence intensity (a.u.)
GAATCAACTGGTGGGGTTCACTAGAGACCATGCAATAGTTCGGAGTCACCTAGTGCAG | 3150 fluorescence intensity (a.u.)
TTATGATGTAATTAGGCTCAAAAGATTCGTCTCGCAATTTCGGAGTCACCTAGTGCAG | 44200 fluorescence intensity (a.u.)
GCTGGCGCTGGTGACGGCATCCATCCAAGAACTGCCTCCTCGGAGTCACCTAGTGCAG | 4210 fluorescence intensity (a.u.)
CTAACTGGGTATGGATGATAGGTCACGCCGTCACGTGCCACGGAGTCACCTAGTGCAG | 4990 fluorescence intensity (a.u.)
TGGACCAACAGCCACTGACACGGTGGGCCCCACGGAGACGCGGAGTCACCTAGTGCAG | 3590 fluorescence intensity (a.u.)
AGGCGATCATTGCGTACGTTGCGCGCACCGCCTCGCCCTTCGGAGTCACCTAGTGCAG | 3420 fluorescence intensity (a.u.)
TCAGTCTGCATTCATCGATGACATCATGGATGATGCATTGCGGAGTCACCTAGTGCAG | 7950 fluorescence intensity (a.u.)
TCCTTCTTCTTCTCCTTCCTCACTGCAACACTCTTCGGGGCGGAGTCACCTAGTGCAG | 38900 fluorescence intensity (a.u.)
TTTGAAGCATTGCTATTCATGACGTACCAACTCAGCACTCCGGAGTCACCTAGTGCAG | 7590 fluorescence intensity (a.u.)
AAATCCGCCCTCGCCTCGCCCCGATCGATCCCCTCGATTCCGGAGTCACCTAGTGCAG | 3810 fluorescence intensity (a.u.)
ACGGATCTATAGAGTAATGACCGGTGTCAGGCGACACCGACGGAGTCACCTAGTGCAG | 3750 fluorescence intensity (a.u.)
TTGAGCTAGCCTGACTGTCAGTAACAGAACCAGTGATCTGCGGAGTCACCTAGTGCAG | 3520 fluorescence intensity (a.u.)
CTCGCGGCAACCATGCATCAAATTTTAAATGCCCCAATATCGGAGTCACCTAGTGCAG | 9450 fluorescence intensity (a.u.)
CCTCGAAAGGCCCATCACGCGTCTTCCTTACGTGGGCCGTCGGAGTCACCTAGTGCAG | 4260 fluorescence intensity (a.u.)
ATGTTATGTGTAGGTTTTGCTTAGTCAGTCACACAGATTTCGGAGTCACCTAGTGCAG | 6630 fluorescence intensity (a.u.)

Random excerpt: 3 entries already listed, in no set order.
Sequence | binding signal
AATCCTCCATGACTCGAGTCTCTCCTCGGATTAGGATCTACGGAGTCACCTAGTGCAG | 4740 fluorescence intensity (a.u.)
CCTCGAAAGGCCCATCACGCGTCTTCCTTACGTGGGCCGTCGGAGTCACCTAGTGCAG | 4260 fluorescence intensity (a.u.)
CTCGCGGCAACCATGCATCAAATTTTAAATGCCCCAATATCGGAGTCACCTAGTGCAG | 9450 fluorescence intensity (a.u.)

Continued:

Sequence | binding signal
CGGTCTAGACTGGAGTTGGCACGAAATGCGGTGCTTCCTGCGGAGTCACCTAGTGCAG | 3330 fluorescence intensity (a.u.)
AGAAGGGATAAAGAGAGGATGACATGTGGGACCCACATGTCGGAGTCACCTAGTGCAG | 4130 fluorescence intensity (a.u.)
ATATGAAGTGACTAATATGCACTCTTGGCATAGTTAATACCGGAGTCACCTAGTGCAG | 3280 fluorescence intensity (a.u.)
GCCCTGATCATACAGAGTATGACGTTATAAGAATGCAGTGCGGAGTCACCTAGTGCAG | 4940 fluorescence intensity (a.u.)
CTCCATGCGCTCACGTTCCATCGCGTGGTCCACGCCCTTCCGGAGTCACCTAGTGCAG | 3980 fluorescence intensity (a.u.)
GAGTAATTGTTTTACTTTGTGTAACGTCATGGGACCTAGACGGAGTCACCTAGTGCAG | 3330 fluorescence intensity (a.u.)
GTGGGTGGAGGAAGCGGATAGGGAGAGGGGTGTGGGGCGGCGGAGTCACCTAGTGCAG | 5720 fluorescence intensity (a.u.)
ACCAAACAGCTCCTAAGCTTATATAATGGTGTACTACAAGCGGAGTCACCTAGTGCAG | 3310 fluorescence intensity (a.u.)
GATCCGCCCCAGGTAGTACTGTAGTAGTGTGCATAGGGCACGGAGTCACCTAGTGCAG | 3260 fluorescence intensity (a.u.)
GCCACGCCTCCTATATCCACGCTGCCCAGCGGCGCCCACCCGGAGTCACCTAGTGCAG | 3190 fluorescence intensity (a.u.)
AAACGCCGCGCTGCGCGGCCTACGAGGGTGTCCGTGGCGCCGGAGTCACCTAGTGCAG | 3360 fluorescence intensity (a.u.)
GGTGGGATCCTCTGCGGCCTCGTATTTCTATCTGCTTAACCGGAGTCACCTAGTGCAG | 3230 fluorescence intensity (a.u.)
GCGCAGATGTGTGCGTGGCATGGAATCCCCGATGTGGATGCGGAGTCACCTAGTGCAG | 4000 fluorescence intensity (a.u.)
TGTCCACCACCCCGAAGCGTGACGTGACACGCACCATCCACGGAGTCACCTAGTGCAG | 3700 fluorescence intensity (a.u.)
AGAAGGGGAAAAGAAGGATAGAGGGACTGACACGTGGGTCCGGAGTCACCTAGTGCAG | 8780 fluorescence intensity (a.u.)
TTCACCTTGCTCCTCTCTCTCTCTCTCTCTCCTTAATTCTCGGAGTCACCTAGTGCAG | 5280 fluorescence intensity (a.u.)
ATCCGTAACTTTGGTCACATTGCCACGTAAGATAACATTTCGGAGTCACCTAGTGCAG | 16500 fluorescence intensity (a.u.)
CTACACCGCCACCTCCCCACGCTGCTCTGCTTCTCTTCTTCGGAGTCACCTAGTGCAG | 3880 fluorescence intensity (a.u.)
GAGGCGGCGGGAGGGAAGTCGCACGTCGTCGTCGGGGTCGCGGAGTCACCTAGTGCAG | 3700 fluorescence intensity (a.u.)
GGTTTGTTTGTCGTTCATGTGACGAGCGCATCCGTTTTCCCGGAGTCACCTAGTGCAG | 3170 fluorescence intensity (a.u.)
CTACTGCTGTTGTGAAATTGGCAATAGTTCAATCACACTACGGAGTCACCTAGTGCAG | 3480 fluorescence intensity (a.u.)
